Among the data in US20260209320A1 are binding values, retold here.

Sequences and labels used below:
B1: ATL_0006374 (antibody, V domains shown)
VH: EVQLVESGGGLVKPGGSLRLSCAASGFTFNKAWMSWVRQAPGKGLEWVGRIKSGIDAGTTDYAAPVKGRFTISRDDSKNTLYLQMNSLKTEDTAVYWCVPPPYYYYYGLDVWGQGTTVTVSS
VL: QSALTQPRSVSGSPGQSVTISCTGTSSDVGSYNLVSWYQQHPGKAPKLMIYEVNKRPSGVPDRFSGSKSGATASLTISGLQAEDEADYYCVSYGGTENVFGTGTKVTVL
B2: ATL_0006377 (antibody, V domains shown)
VH: EVQLVESGGGLVKPGGSLRLSCAASGFTFNKAWMSWVRQAPGKGLEWVGRIKSGIDAGTTDYAAPVKGRFTISRDDSKNTLYLQMNSLKTEDTAVYYCVPSPYYYYYGLDVWGQGTTVTVSS
VL: QSALTQPRSVSGSPGQSVTISCTGTSSDVGSYNLVSWYQQHPGKAPKLMIYEVNKRPSGVPDRFSGSKSGATASLTISGLQAEDEADYYCVSYAGTANVFGTGTKVTVL
B3: ATL_0006376 (antibody, V domains shown)
VH: EVQLVESGGGLVKPGGSLRLSCAASGFTFNKAWMSWVRQAPGKGLEWVGRIKSGIDAGTTDYAAPVKGRFTISRDDSKNTLYLQMNSLKTEDTAVYYCVPPPFYYYYGLDVWGQGTTVTVSS
VL: QSALTQPRSVSGSPGQSVTISCTGTSSDVGSYNLVSWYQQHPGKAPKLMIYEVNKRPSGVPDRFSGSKSGATASLTISGLQAEDEADYYCVSYGGTENVFGTGTKVTVL
B4: ATL_0006185 (antibody, V domains shown)
VH: EVQLVESGGGLVKPGGSLRLSCAASGFTFNKAWMSWVRQAPGKGLEWVGRIKSGIDAGTTDYAAPVKGRFTISRDDSKNTLYLQMNSLKTEDTAVYYCTPPPYYYYGLNVWGQGTTVTVSS
VL: QSALTQPRSVSGSPGQSVTISCTGTSSDVGSYNLVSWYQQHPGKAPKLMIYEVNKRPSGVPDRFSGSKSGATASLTISGLQAEDEADYYCGSYAGTANVFGTGTKVTVL
B5: ATL_0006378 (antibody, V domains shown)
VH: EVQLVESGGGLVKPGGSLRLSCAASGFTFNKAWMSWVRQAPGKGLEWVGRIKSGIDAGTTDYAAPVKGRFTISRDDSKNTLYLQMNSLKTEDTAVYYCVPSPYYYYYGLDVWGQGTTVTVSS
VL: QSALTQPRSVSGSPGQSVTISCTGTSSDVGSYNLVSWYQQHPGKAPKLMIYEVNKRPSGVPDRFSGSKSGATASLTISGLQAEDEADYYCVSYGGTENVFGTGTKVTVL
B6: ATL_0006375 (antibody, V domains shown)
VH: EVQLVESGGGLVKPGGSLRLSCAASGFTFNKAWMSWVRQAPGKGLEWVGRIKSGIDAGTTDYAAPVKGRFTISRDDSKNTLYLQMNSLKTEDTAVYYCVPPPYYYYYGLDVWGQGTTVTVSS
VL: QSALTQPRSVSGSPGQSVTISCTGTSSDVGSYNLVSWYQQHPGKAPKLMIYEVNKRPSGVPDRFSGSKSGATASLTISGLQAEDEADYYCVSYGGTENVFGTGTKVTVL
B7: ATL_0006183 (antibody, V domains shown)
VH: EVQLVESGGGLVKPGGSLRLSCAASGFTFNKAWMSWVRQAPGKGLEWVGRIKSGIDAGTTDYAAPVKGRFTISRDDSKNTLYLQMNSLKTEDTAVYYCTPPPYYYYGLDVWGQGTTVTVSS
VL: QSALTQPRSVSGSPGQSVTISCTGTSSDVGSYNLVSWYQQHPGKAPKLMIYEVNKRPSGVPDRFSGSKSGATASLTISGLQAEDEADYYCGSYAGTANVFGTGTKVTVL
B8: ATL_0006184 (antibody, V domains shown)
VH: EVQLVESGGGLVKPGGSLRLSCAASGFTFNKAWMSWVRQAPGKGLEWVGRIKSGIDAGTTDYAAPVKGRFTISRDDSKATLYLQMNSLKTEDTAVYYCTPPPYYYYGLDVWGQGTTVTVSS
VL: QSALTQPASVSGSPGQSITISCTGTSSDVGGYKLVSWYQQHPGRAPKLMIYEVSKRPSGVSSRFSGSKSGSTASLTISGLQAEDEADYYCSSYAGSSVVFGGGTKLTVL
B9: ATL_0006186 (antibody, V domains shown)
VH: EVQLVESGGGLVKPGGSLRLSCAASGFTFNKAWMSWVRQAPGKGLEWVGRIKSGIDAGTTDYAAPVKGRFTISRDDSKATLYLQMNSLKTEDTAVYYCTPPPYYYYGLNVWGQGTTVTVSS
VL: QSALTQPASVSGSPGQSITISCTGTSSDVGGYKLVSWYQQHPGRAPKLMIYEVSKRPSGVSSRFSGSKSGSTASLTISGLQAEDEADYYCSSYAGSSVVFGGGTKLTVL

No constants are given. Whether binding was seen depends on the method and setting.

The target in the assay is lysozyme. As to the kind of experiment: lysozyme ELISA (antigen control of the sandwich ELISA). On the technique in general: In an ELISA, binding on a coated surface is turned into a signal by an enzyme label.
For the molecule B1, the binding entry was “no binding”.
The same measure for B2: “no binding”.
To B3 belongs “no binding”; to B4, “no binding”.
To B5 belongs “no binding”; to B6, “no binding”; to B7, “no binding”.
Consider B8, for which the binding entry is recorded as “no binding”.
On to B9, for which the binding result is “no binding”.
